No constants are given. Whether binding was seen depends on the method and setting. In cells and extracts the contact can be indirect. These calls come from enrichment with a bait or labelling near it, and not all partners need be listed. Sequences can lack the tags named with a protein.
T1: FLAG-tagged SMCR8 (Smith-Magenis Syndrome Chromosome Region, Candidate 8) (UniProt Q8TEV9)
T1 sequence: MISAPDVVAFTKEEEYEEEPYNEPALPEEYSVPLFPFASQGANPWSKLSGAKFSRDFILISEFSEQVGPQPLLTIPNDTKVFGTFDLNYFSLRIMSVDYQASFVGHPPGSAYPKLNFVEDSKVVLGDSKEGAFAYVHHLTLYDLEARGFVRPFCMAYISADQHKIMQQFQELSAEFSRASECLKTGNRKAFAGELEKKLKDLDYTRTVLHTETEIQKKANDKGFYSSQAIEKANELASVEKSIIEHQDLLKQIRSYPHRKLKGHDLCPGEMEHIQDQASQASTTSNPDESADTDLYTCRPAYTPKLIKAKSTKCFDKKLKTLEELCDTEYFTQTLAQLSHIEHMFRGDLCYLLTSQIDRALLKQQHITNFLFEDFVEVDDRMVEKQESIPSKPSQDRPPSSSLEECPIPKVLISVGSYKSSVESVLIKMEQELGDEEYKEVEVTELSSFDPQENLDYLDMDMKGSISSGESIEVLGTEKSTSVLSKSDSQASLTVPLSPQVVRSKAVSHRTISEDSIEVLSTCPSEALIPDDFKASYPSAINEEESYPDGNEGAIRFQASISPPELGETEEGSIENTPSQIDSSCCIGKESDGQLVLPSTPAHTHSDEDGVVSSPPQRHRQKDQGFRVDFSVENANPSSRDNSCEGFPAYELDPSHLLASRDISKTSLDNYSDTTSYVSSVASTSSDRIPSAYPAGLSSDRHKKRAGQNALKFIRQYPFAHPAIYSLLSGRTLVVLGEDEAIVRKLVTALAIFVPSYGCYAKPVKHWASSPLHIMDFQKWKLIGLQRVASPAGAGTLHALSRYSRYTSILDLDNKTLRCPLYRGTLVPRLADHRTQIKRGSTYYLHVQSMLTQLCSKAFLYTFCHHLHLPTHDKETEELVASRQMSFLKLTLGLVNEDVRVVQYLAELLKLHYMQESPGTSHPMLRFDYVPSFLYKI

B1: methionyl-tRNA synthetase (protein, UniProt P56192 1-900)
chain: MRLFVSDGVPGCLPVLAAAGRARGRAEVLISTVGPEDCVVPFLTRPKVPVLQLDSGNYLFSTSAICRYFFLLSGWEQDDLTNQWLEWEATELQPALSAALYYLVVQGKKGEDVLGSVRRALTHIDHSLSRQNCPFLAGETESLADIVLWGALYPLLQDPAYLPEELSALHSWFQTLSTQEPCQRAAETVLKQQGVLALRPYLQKQPQPSPAEGRAVTNEPEEEELATLSEEEIAMAVTAWEKGLESLPPLRPQQNPVLPVAGERNVLITSALPYVNNVPHLGNIIGCVLSADVFARYSRLRQWNTLYLCGTDEYGTATETKALEEGLTPQEICDKYHIIHADIYRWFNISFDIFGRTTTPQQTKITQDIFQQLLKRGFVLQDTVEQLRCEHCARFLADRFVEGVCPFCGYEEARGDQCDKCGKLINAVELKKPQCKVCRSCPVVQSSQHLFLDLPKLEKRLEEWLGRTLPGSDWTPNAQFITRSWLRDGLKPRCITRDLKWGTPVPLEGFEDKVFYVWFDATIGYLSITANYTDQWERWWKNPEQVDLYQFMAKDNVPFHSLVFPCSALGAEDNYTLVSHLIATEYLNYEDGKFSKSRGVGVFGDMAQDTGIPADIWRFYLLYIRPEGQDSAFSWTDLLLKNNSELLNNLGNFINRAGMFVSKFFGGYVPEMVLTPDDQRLLAHVTLELQHYHQLLEKVRIRDALRSILTISRHGNQYIQVNEPWKRIKGSEADRQRAGTVTGLAVNIAALLSVMLQPYMPTVSATIQAQLQLPPPACSILLTNFLCTLPAGHQIGTVSPLFQKLENDQIESLRQRFGGGQAKTSPKPAVVETVTTAKPQQIQALMDEVTKQGNIVRELKAQKADKNEVAAEVAKLLDLKKQLAVAEGKPPEAPKGKKKK
B2: arginyl-tRNA synthetase (protein, UniProt P54136 1-660)
chain: MDVLVSECSARLLQQEEEIKSLTAEIDRLKNCGCLGASPNLEQLQEENLKLKYRLNILRKSLQAERNKPTKNMINIISRLQEVFGHAIKAAYPDLENPPLLVTPSQQAKFGDYQCNSAMGISQMLKTKEQKVNPREIAENITKHLPDNECIEKVEIAGPGFINVHLRKDFVSEQLTSLLVNGVQLPALGENKKVIVDFSSPNIAKEMHVGHLRSTIIGESISRLFEFAGYDVLRLNHVGDWGTQFGMLIAHLQDKFPDYLTVSPPIGDLQVFYKESKKRFDTEEEFKKRAYQCVVLLQGKNPDITKAWKLICDVSRQELNKIYDALDVSLIERGESFYQDRMNDIVKEFEDRGFVQVDDGRKIVFVPGCSIPLTIVKSDGGYTYDTSDLAAIKQRLFEEKADMIIYVVDNGQSVHFQTIFAAAQMIGWYDPKVTRVFHAGFGVVLGEDKKKFKTRSGETVRLMDLLGEGLKRSMDKLKEKERDKVLTAEELNAAQTSVAYGCIKYADLSHNRLNDYIFSFDKMLDDRGNTAAYLLYAFTRIRSIARLANIDEEMLQKAARETKILLDHEKEWKLGRCILRFPEILQKILDDLFLHTLCDYIYELATAFTEFYDSCYCVEKDRQTGKILKVNMWRMLLCEAVAAVMAKGFDILGIKPVQRM
B3: glutaminyl-tRNA synthetase (protein, UniProt P47897 1-775)
chain: MAALDSLSLFTSLGLSEQKARETLKNSALSAQLREAATQAQQTLGSTIDKATGILLYGLASRLRDTRRLSFLVSYIASKKIHTEPQLSAALEYVRSHPLDPIDTVDFERECGVGVIVTPEQIEEAVEAAINRHRPQLLVERYHFNMGLLMGEARAVLKWADGKMIKNEVDMQVLHLLGPKLEADLEKKFKVAKARLEETDRRTAKDVVENGETADQTLSLMEQLRGEALKFHKPGENYKTPGYVVTPHTMNLLKQHLEITGGQVRTRFPPEPNGILHIGHAKAINFNFGYAKANNGICFLRFDDTNPEKEEAKFFTAICDMVAWLGYTPYKVTYASDYFDQLYAWAVELIRRGLAYVCHQRGEELKGHNTLPSPWRDRPMEESLLLFEAMRKGKFSEGEATLRMKLVMEDGKMDPVAYRVKYTPHHRTGDKWCIYPTYDYTHCLCDSIEHITHSLCTKEFQARRSSYFWLCNALDVYCPVQWEYGRLNLHYAVVSKRKILQLVATGAVRDWDDPRLFTLTALRRRGFPPEAINNFCARVGVTVAQTTMEPHLLEACVRDVLNDTAPRAMAVLESLRVIITNFPAAKSLDIQVPNFPADETKGFHQVPFAPIVFIERTDFKEEPEPGFKRLAWGQPVGLRHTGYVIELQHVVKGPSGCVESLEVTCRRADAGEKPKAFIHWVSQPLMCEVRLYERLFQHKNPEDPTEVPGGFLSDLNLASLHVVDAALVDCSVALAKPFDKFQFERLGYFSVDPDSHQGKLVFNRTVTLKEDPGKV
B4: threonyl-tRNA synthetase (protein, UniProt P26639 1-723)
chain: MFEEKASSPSGKMGGEEKPIGAGEEKQKEGGKKKNKEGSGDGGRAELNPWPEYIYTRLEMYNILKAEHDSILAEKAEKDSKPIKVTLPDGKQVDAESWKTTPYQIACGISQGLADNTVIAKVNNVVWDLDRPLEEDCTLELLKFEDEEAQAVYWHSSAHIMGEAMERVYGGCLCYGPPIENGFYYDMYLEEGGVSSNDFSSLEALCKKIIKEKQAFERLEVKKETLLAMFKYNKFKCRILNEKVNTPTTTVYRCGPLIDLCRGPHVRHTGKIKALKIHKNSSTYWEGKADMETLQRIYGISFPDPKMLKEWEKFQEEAKNRDHRKIGRDQELYFFHELSPGSCFFLPKGAYIYNALIEFIRSEYRKRGFQEVVTPNIFNSRLWMTSGHWQHYSENMFSFEVEKELFALKPMNCPGHCLMFDHRPRSWRELPLRLADFGVLHRNELSGALTGLTRVRRFQQDDAHIFCAMEQIEDEIKGCLDFLRTVYSVFGFSFKLNLSTRPEKFLGDIEVWDQAEKQLENSLNEFGEKWELNSGDGAFYGPKIDIQIKDAIGRYHQCATIQLDFQLPIRFNLTYVSHDGDDKKRPVIVHRAILGSVERMIAILTENYGGKWPFWLSPRQVMVVPVGPTCDEYAQKVRQQFHDAKFMADIDLDPGCTLNKKIRNAQLAQYNFILVVGEKEKISGTVNIRTRDNKVHGERTISETIERLQQLKEFRSKQAEEEF
B5: protein phosphatase 6 catalytic subunit (protein, UniProt O00743 1-305)
chain: MAPLDLDKYVEIARLCKYLPENDLKRLCDYVCDLLLEESNVQPVSTPVTVCGDIHGQFYDLCELFRTGGQVPDTNYIFMGDFVDRGYYSLETFTYLLALKAKWPDRITLLRGNHESRQITQVYGFYDECQTKYGNANAWRYCTKVFDMLTVAALIDEQILCVHGGLSPDIKTLDQIRTIERNQEIPHKGAFCDLVWSDPEDVDTWAISPRGAGWLFGAKVTNEFVHINNLKLICRAHQLVHEGYKFMFDEKLVTVWSAPNYCYRCGNIASIMVFKDVNTREPKLFRAVPDSERVIPPRTTTPYFL
B6: minichromosome maintenance complex component 5 (protein, UniProt P33992 1-734)
chain: MSGFDDPGIFYSDSFGGDAQADEGQARKSQLQRRFKEFLRQYRVGTDRTGFTFKYRDELKRHYNLGEYWIEVEMEDLASFDEDLADYLYKQPAEHLQLLEEAAKEVADEVTRPRPSGEEVLQDIQVMLKSDASPSSIRSLKSDMMSHLVKIPGIIIAASAVRAKATRISIQCRSCRNTLTNIAMRPGLEGYALPRKCNTDQAGRPKCPLDPYFIMPDKCKCVDFQTLKLQELPDAVPHGEMPRHMQLYCDRYLCDKVVPGNRVTIMGIYSIKKFGLTTSRGRDRVGVGIRSSYIRVLGIQVDTDGSGRSFAGAVSPQEEEEFRRLAALPNVYEVISKSIAPSIFGGTDMKKAIACLLFGGSRKRLPDGLTRRGDINLLMLGDPGTAKSQLLKFVEKCSPIGVYTSGKGSSAAGLTASVMRDPSSRNFIMEGGAMVLADGGVVCIDEFDKMREDDRVAIHEAMEQQTISIAKAGITTTLNSRCSVLAAANSVFGRWDETKGEDNIDFMPTILSRFDMIFIVKDEHNEERDVMLAKHVITLHVSALTQTQAVEGEIDLAKLKKFIAYCRVKCGPRLSAEAAEKLKNRYIIMRSGARQHERDSDRRSSIPITVRQLEAIVRIAEALSKMKLQPFATEADVEEALRLFQVSTLDAALSGTLSGVEGFTSQEDQEMLSRIEKQLKRRFAIGSQVSEHSIIKDFTKQKYPEHAIHKVLQLMLRRGEIQHRMQRKVLYRLK

Target: T1, FLAG-tagged SMCR8 (Smith-Magenis Syndrome Chromosome Region, Candidate 8)
Test: affinity purification with mass spectrometry; FL-SMCR8, C9orf72-FL or empty vector transfected in HEK 293T; α-FLAG agarose IP from whole cell lysates with or without RNase; LC-MS/MS; hits with three or more spectra and not detected in vector only control

Binder	binding
B1	binds
B2	binds
B3	binds
B4	binds
B5	binds
B6	binds

From publication PMC7364817
